Experimental data from PubChem BioAssay AID304 (DTP/NCI, 2004).
The list does not hold the whole screen: it covers a few groups of compounds. Other doses and runs of a compound may be missing. T/C is the treated group as % of the vehicle group. Some entries give survivors of the animals treated and no T/C: the source files T/C as zero there, which appears to mark a toxic dose or a test without result, not a measured value. Some survivor counts are full or nearly so, which does not show that the dose was tolerated: the source hardly ever lists a survival T/C far under the control, and the zero likely stands for such cases as well. Survivors were counted at the toxicity check, usually on the fifth day, unless a day is given; later deaths do not show. Schedules are NCI's codes, taken here to give the interval after Q, in days (D) or hours (H), and the number of doses after X. Some entries were tested several times; the results are listed from low to high. Where survival is the endpoint, the PubChem record calls one and a half times the control and up active, and a quarter to a half above the control has no call in these data; cut-offs in other NCI protocols can differ.

Test system: Lymphosarcoma Mecca ip in C3AKF1 mice, survival T/C%
Experiment: NCI In Vivo Anticancer Drug Screen. Data for tumor model Lymphosarcoma Mecca (intraperitoneal) in C3AKF1 (CHKRF1) mice
Settings: T/C endpoint: survival time, mean or median, schedule: Q01DX010 (ip), vehicle: saline, higher T/C = longer survival
Description: The antitumor activity of compounds was measured in mice bearing transplantable tumors. Survival or tumor size were measured and the results are expressed as the measurement made in the treated group (T) divided by the measurement made in the vehicle treated control group (C). The tumor model used in this assay is Lymphosarcoma Mecca (intraperitoneal) in C3AKF1 (CHKRF1) mice

| SMILES | T/C (dose: 0.25 mg/kg/injection) | T/C (dose: 0.5 mg/kg/injection) | T/C (dose: 1.0 mg/kg/injection) | T/C (dose: 2.0 mg/kg/injection) | T/C (dose: 8.0 mg/kg/injection) | T/C (dose: 16.0 mg/kg/injection) | T/C (dose: 32.0 mg/kg/injection) | survivor count (dose: 32.0 mg/kg/injection) | survivor count (dose: 64.0 mg/kg/injection) |
| --- | --- | --- | --- | --- | --- | --- | --- | --- | --- |
| Cc1[nH]c(=O)[nH]c(=O)c1N(CCCl)CCCl | 115 % of control | 120 % of control | 140 % of control | 220 % of control |  |  |  |  |  |
| CN(N=O)C(=N)N[N+](=O)[O-] |  |  |  |  | 130 and 177 % of control | 118 and 160 % of control | 90 % of control | 6 of 6 | 5 of 6 and 6 of 6 |
